The list shows a part of the results. The data scatter; read single values as rough.

Sequences of proteins named here, by UniProt entry; tags and fusion partners are left off. A change or cut given only in a name is not applied to a line headed by its entry. Residues count along the entry.
UniProt Q8IZL8: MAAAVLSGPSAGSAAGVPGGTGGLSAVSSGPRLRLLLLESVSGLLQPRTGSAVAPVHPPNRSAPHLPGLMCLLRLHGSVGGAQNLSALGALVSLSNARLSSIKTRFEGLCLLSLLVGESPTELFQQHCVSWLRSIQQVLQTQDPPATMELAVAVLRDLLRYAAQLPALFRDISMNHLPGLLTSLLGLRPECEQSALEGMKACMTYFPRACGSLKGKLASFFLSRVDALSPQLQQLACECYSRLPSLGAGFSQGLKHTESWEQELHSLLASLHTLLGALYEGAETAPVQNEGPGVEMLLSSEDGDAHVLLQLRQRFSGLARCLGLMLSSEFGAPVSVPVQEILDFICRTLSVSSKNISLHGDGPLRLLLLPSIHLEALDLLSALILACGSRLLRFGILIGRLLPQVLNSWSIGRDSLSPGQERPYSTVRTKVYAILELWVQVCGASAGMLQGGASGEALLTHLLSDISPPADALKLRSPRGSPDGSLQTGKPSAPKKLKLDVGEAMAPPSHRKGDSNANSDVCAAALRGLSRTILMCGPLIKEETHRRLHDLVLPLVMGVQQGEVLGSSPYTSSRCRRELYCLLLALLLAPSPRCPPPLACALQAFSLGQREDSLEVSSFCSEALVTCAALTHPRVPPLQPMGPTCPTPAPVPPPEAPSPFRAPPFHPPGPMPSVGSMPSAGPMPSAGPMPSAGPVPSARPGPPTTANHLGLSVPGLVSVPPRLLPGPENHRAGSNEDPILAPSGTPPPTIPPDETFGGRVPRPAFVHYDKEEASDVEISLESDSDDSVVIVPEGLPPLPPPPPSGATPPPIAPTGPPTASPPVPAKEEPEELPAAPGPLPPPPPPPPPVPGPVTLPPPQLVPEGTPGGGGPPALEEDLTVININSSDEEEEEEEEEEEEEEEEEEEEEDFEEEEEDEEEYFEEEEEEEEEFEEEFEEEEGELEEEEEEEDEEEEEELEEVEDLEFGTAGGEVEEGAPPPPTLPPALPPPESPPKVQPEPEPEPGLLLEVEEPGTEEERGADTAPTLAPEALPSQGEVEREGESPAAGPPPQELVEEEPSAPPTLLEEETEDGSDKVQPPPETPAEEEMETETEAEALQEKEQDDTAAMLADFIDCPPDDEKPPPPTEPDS
UniProt Q8NBM8: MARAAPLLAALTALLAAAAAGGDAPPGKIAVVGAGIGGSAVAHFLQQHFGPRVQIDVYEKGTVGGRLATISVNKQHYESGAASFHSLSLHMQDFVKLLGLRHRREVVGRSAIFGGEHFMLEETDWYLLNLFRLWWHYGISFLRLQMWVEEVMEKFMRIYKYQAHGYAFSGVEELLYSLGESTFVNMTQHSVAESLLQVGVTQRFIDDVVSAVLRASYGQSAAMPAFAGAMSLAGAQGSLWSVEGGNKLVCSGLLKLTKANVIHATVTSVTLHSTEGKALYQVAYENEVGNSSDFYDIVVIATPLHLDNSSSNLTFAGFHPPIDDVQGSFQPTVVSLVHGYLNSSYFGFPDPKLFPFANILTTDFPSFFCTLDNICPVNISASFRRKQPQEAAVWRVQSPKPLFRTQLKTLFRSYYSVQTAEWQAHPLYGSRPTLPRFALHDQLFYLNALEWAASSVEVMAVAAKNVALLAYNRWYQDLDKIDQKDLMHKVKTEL
UniProt O60658: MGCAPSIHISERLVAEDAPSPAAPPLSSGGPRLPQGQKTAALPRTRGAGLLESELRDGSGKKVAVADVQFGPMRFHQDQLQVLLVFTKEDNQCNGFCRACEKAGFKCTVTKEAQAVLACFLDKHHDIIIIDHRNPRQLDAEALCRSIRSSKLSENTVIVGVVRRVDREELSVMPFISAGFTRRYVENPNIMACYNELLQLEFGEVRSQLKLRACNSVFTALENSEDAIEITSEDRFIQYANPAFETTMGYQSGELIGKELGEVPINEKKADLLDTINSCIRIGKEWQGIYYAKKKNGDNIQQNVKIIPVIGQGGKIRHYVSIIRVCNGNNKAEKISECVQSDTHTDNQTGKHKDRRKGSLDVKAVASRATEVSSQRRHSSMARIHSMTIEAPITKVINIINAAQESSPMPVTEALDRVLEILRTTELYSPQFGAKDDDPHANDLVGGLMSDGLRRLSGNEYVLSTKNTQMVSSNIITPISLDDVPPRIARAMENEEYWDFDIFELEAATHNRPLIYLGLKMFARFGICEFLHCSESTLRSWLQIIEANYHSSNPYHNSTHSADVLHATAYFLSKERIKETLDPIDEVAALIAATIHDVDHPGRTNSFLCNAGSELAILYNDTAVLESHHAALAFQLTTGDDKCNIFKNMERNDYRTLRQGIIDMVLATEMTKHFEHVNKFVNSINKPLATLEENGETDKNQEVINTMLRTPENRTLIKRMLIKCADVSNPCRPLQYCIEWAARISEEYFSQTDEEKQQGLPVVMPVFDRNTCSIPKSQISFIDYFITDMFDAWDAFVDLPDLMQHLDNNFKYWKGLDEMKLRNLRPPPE
UniProt Q6P996: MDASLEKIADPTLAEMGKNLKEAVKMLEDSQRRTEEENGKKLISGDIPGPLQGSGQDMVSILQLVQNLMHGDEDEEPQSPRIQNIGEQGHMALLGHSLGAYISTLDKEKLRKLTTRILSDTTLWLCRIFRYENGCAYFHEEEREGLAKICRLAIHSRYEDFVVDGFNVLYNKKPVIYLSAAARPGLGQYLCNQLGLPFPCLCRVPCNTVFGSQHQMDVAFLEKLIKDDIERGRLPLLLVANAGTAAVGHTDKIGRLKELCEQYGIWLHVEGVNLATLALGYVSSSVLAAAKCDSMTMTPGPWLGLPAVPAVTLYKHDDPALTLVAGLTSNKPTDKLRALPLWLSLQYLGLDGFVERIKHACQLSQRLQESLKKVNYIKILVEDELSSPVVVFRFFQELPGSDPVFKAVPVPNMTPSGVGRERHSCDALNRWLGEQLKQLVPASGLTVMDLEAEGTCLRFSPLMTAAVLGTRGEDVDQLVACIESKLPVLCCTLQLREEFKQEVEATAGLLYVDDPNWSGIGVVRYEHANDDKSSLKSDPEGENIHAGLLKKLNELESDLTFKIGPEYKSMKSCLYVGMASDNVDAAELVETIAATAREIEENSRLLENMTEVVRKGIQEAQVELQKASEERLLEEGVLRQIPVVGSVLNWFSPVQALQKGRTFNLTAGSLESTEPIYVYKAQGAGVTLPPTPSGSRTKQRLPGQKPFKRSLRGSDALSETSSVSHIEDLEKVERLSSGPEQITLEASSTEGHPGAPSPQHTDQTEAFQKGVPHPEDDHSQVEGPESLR
UniProt P00558, 298-323: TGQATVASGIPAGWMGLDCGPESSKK
UniProt Q8WUM4: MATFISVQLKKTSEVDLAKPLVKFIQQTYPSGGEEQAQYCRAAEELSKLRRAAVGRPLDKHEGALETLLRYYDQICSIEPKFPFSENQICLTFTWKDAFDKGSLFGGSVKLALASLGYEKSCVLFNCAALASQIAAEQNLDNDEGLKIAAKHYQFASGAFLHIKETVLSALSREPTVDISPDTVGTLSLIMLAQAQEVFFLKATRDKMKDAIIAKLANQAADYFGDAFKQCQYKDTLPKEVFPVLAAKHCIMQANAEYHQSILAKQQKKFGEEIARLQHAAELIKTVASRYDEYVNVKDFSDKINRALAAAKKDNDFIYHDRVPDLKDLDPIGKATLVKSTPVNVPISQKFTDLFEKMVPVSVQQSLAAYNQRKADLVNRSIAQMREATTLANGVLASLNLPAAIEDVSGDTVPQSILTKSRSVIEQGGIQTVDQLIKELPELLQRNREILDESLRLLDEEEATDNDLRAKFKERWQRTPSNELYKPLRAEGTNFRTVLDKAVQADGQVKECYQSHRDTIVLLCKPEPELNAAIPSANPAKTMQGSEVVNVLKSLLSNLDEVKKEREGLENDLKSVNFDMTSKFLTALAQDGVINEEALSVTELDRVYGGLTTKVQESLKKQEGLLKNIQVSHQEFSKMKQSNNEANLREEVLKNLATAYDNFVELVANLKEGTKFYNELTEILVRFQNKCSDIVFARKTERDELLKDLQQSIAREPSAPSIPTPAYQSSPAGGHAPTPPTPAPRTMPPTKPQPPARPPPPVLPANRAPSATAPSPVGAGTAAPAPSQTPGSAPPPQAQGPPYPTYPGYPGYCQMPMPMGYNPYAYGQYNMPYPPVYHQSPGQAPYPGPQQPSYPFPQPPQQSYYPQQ
UniProt O15173: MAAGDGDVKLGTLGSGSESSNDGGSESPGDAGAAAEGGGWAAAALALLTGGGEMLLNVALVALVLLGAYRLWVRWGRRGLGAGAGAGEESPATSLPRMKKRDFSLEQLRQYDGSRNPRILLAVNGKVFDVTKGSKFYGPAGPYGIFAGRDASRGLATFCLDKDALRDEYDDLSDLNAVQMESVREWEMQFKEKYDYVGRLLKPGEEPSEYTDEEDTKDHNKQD
UniProt Q9UGN5: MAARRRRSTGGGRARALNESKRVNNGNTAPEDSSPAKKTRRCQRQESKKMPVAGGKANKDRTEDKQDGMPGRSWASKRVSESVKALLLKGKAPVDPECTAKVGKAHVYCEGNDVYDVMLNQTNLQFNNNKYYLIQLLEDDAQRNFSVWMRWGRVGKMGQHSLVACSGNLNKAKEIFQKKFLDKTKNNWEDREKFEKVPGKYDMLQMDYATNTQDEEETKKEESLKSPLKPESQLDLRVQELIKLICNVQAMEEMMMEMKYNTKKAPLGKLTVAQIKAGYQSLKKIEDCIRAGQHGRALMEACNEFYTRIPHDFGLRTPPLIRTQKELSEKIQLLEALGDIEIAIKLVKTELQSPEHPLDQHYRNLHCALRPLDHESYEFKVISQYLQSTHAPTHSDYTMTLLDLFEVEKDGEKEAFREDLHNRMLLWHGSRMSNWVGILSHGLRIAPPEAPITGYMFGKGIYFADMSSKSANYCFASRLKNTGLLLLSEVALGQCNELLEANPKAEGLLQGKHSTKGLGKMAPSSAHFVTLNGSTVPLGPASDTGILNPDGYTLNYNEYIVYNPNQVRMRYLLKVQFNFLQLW
UniProt O95336: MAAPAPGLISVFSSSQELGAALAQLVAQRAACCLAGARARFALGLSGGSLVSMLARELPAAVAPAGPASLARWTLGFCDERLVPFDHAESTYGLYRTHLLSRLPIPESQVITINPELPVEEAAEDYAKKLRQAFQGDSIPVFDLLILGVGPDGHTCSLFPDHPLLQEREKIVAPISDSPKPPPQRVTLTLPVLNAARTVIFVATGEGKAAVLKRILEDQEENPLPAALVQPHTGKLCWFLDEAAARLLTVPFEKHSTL
UniProt Q9Y5B6: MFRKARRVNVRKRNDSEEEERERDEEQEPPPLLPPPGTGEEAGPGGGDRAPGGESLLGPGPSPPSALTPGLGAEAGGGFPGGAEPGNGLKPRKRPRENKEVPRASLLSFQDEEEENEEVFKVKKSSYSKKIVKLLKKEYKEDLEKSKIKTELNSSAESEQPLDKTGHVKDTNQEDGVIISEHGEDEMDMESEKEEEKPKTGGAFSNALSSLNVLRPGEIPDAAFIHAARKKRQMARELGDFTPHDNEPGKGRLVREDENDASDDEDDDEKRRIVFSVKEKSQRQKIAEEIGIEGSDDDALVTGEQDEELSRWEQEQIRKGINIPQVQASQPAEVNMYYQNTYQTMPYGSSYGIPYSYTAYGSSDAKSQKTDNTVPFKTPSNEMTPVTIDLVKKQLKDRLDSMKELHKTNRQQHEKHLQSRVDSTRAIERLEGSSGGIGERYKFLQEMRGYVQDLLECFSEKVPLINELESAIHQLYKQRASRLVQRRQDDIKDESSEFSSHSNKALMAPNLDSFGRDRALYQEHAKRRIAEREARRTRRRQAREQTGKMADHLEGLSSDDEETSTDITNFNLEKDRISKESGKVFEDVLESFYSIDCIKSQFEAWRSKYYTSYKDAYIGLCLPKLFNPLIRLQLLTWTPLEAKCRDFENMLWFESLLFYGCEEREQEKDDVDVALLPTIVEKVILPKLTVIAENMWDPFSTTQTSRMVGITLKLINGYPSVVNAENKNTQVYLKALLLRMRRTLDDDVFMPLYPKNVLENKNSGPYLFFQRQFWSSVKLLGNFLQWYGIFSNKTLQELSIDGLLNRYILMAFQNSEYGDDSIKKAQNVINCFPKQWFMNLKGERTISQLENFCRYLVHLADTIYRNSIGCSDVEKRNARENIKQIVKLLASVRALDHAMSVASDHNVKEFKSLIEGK
UniProt Q5JVF3: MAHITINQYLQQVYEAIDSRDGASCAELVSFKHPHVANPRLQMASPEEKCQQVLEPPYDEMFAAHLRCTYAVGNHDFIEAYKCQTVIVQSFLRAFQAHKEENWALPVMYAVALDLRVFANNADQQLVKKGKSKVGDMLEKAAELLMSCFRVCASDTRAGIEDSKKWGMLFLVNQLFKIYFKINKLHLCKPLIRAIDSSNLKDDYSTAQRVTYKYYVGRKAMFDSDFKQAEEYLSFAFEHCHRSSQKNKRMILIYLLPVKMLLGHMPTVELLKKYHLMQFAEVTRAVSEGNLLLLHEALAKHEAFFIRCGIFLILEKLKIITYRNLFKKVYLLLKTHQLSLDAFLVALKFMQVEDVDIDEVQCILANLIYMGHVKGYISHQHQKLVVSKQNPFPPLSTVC

Compound in assay [1]: ClCC(=O)N[C@@H]1CCCc2ccccc12
Put plainly: log2 mean competition ratio of IA-DTB cysteine labelling (DMSO/compound) (log2 ratio); higher = stronger cysteine engagement by compound. The following applies: treatment time: 4 h, cell line lysate: HEK293T. The procedure:
(§1)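 IA-DTB competitive cysteine chemoproteomics in HEK293T RIPA lysate. Lysates were treated with compound 29 or 30 at 50 or 200 µM for 4 h, then IA-DTB (500 µM, 1 h), trypsin-digested, NeutrAvidin-enriched and analysed by diaPASEF. Competition ratio = intensity DMSO / intensity compound (n=4 treated, n=64 DMSO); binding: mean log2 CR ≥ 1 and p ≤ 0.05 plus QC filters. Target is the cysteine site.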

Compound in assay [2]: ClCC(=O)N[C@H]1CCCc2ccccc12
The assay is described as above. The note with it: treatment time: 4 h, cell line lysate: HEK293T. How it is done:
as §1

As to PELP1 C536 (UniProt Q8IZL8), the “log2 mean competition ratio” value was 0.28 in assay [1] (50 µM), -0.258 in assay [1] (200 µM), -0.239 in assay [2] (50 µM) and -0.284 in assay [2] (200 µM).

On to PCYOX1L C250 (UniProt Q8NBM8), for which the “log2 mean competition ratio” value in assay [1] (50 µM) is 0.0436; in assay [1] (200 µM) it was -0.133; in assay [2] (50 µM) it was 0.0139; in assay [2] (200 µM), -0.0938.

With PDE8A C338 (UniProt O60658), the “log2 mean competition ratio” value in assay [1] (50 µM) is -0.28; in assay [1] (200 µM), -0.19; in assay [2] (50 µM), -0.595; in assay [2] (200 µM), -0.161.

For PALS2 C298, the “log2 mean competition ratio” value was 0.0605 in assay [1] (50 µM), 0.0681 in assay [1] (200 µM), 0.433 in assay [2] (50 µM) and 0.231 in assay [2] (200 µM).

As to OXNAD1 C69 (UniProt Q96HP4), the “log2 mean competition ratio” value in assay [1] (50 µM) is -0.237; in assay [1] (200 µM) it was -0.0593; in assay [2] (50 µM), -0.318; in assay [2] (200 µM) it was -0.0755.

Regarding PDXDC1 C361 (UniProt Q6P996), the “log2 mean competition ratio” value in assay [1] (50 µM) is -0.00982; in assay [1] (200 µM) it was -0.0877; in assay [2] (50 µM), 0.32; in assay [2] (200 µM) it was -0.439.

In the case of PGK1 C316 (UniProt P00558), the “log2 mean competition ratio” value was determined as 0.0857 in assay [1] (50 µM), 0.288 in assay [1] (200 µM), 0.199 in assay [2] (50 µM) and 0.127 in assay [2] (200 µM).

Turning to PDCD6IP C76 (UniProt Q8WUM4), the “log2 mean competition ratio” value in assay [1] (50 µM) is 0.000741; in assay [1] (200 µM) it was -0.118; in assay [2] (50 µM), -0.442; in assay [2] (200 µM), -0.183.

Turning to PGRMC2 C159 (UniProt O15173), the “log2 mean competition ratio” value in assay [1] (50 µM) is 0.117; in assay [1] (200 µM), -0.143; in assay [2] (50 µM), 0.138; in assay [2] (200 µM), -0.0813.

As for PARP2 C98 (UniProt Q9UGN5), the “log2 mean competition ratio” value was -0.252 in assay [1] (50 µM), 0.264 in assay [1] (200 µM), -0.0913 in assay [2] (50 µM) and 0.246 in assay [2] (200 µM).

As for PAPOLA C36, the “log2 mean competition ratio” value in assay [1] (50 µM) is -0.062; in assay [1] (200 µM) it was 0.43; in assay [2] (50 µM), 0.411; in assay [2] (200 µM), 0.506.

For PGLS C78 (UniProt O95336), the “log2 mean competition ratio” value in assay [1] (50 µM) was -0.222; in assay [1] (200 µM), -0.556; in assay [2] (50 µM), -0.351; in assay [2] (200 µM), -0.318.

For PAXBP1 C831 (UniProt Q9Y5B6), the “log2 mean competition ratio” value in assay [1] (50 µM) is 0.103; in assay [1] (200 µM) it was -0.129; in assay [2] (50 µM), -0.187; in assay [2] (200 µM), -0.157.

For the target PDE5A C68 (UniProt O76074), the “log2 mean competition ratio” value is 0.0979 in assay [1] (50 µM), 0.00655 in assay [1] (200 µM), 0.251 in assay [2] (50 µM) and 0.0192 in assay [2] (200 µM).

For the target PCID2 C25 (UniProt Q5JVF3), the “log2 mean competition ratio” value in assay [1] (50 µM) was -0.0392; in assay [1] (200 µM) it was -0.0512; in assay [2] (50 µM) it was -0.498; in assay [2] (200 µM) it was 0.00864.

For PGK1 C99 (UniProt P00558), the “log2 mean competition ratio” value in assay [1] (50 µM) is -0.323; in assay [1] (200 µM), 0.376; in assay [2] (50 µM), -0.202; in assay [2] (200 µM), 0.211.

The values are drawn from the supplement of paper PMC11732987, “Enantioselective OTUD7B fragment discovery through chemoproteomics screening and high-throughput optimisation” (Communications Chemistry, 2025).
